No constants are given. Whether binding was seen depends on the method and setting. In cells and extracts the contact can be indirect. Some results given as binding are weak or reduced against the parent protein; the word gives no strength. For some assays here: Tags and fused reporters may be left off the sequences shown.
Tests used:
[1] = target: T1, Flag-tagged Gigaxonin (human, full-length) (human) (UniProt Q9H2C0); test: proximity ligation; Duolink in situ PLA on fixed transfected COS-7 cells; anti-mouse minus and anti-rabbit plus probes; details and controls in Supplementary Fig. 1a, b
T1 sequence: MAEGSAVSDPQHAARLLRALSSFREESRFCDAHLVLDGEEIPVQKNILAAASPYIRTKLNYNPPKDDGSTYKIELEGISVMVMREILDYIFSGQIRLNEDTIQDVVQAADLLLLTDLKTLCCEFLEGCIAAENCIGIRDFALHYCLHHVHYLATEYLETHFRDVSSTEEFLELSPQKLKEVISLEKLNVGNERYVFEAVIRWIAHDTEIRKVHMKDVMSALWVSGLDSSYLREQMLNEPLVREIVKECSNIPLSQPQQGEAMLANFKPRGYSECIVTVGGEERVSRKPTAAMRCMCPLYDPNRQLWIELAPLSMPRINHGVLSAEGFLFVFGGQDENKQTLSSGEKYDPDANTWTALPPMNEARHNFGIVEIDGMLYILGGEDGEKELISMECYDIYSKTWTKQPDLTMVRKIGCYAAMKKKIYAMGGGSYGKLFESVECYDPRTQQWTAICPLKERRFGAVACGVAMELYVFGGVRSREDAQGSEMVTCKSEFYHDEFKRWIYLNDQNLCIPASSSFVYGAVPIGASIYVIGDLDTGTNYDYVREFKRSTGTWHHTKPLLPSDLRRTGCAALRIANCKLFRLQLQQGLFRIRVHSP

By UniProt entry, the sequences of proteins in these tests, tags left out.
UniProt Q676U5: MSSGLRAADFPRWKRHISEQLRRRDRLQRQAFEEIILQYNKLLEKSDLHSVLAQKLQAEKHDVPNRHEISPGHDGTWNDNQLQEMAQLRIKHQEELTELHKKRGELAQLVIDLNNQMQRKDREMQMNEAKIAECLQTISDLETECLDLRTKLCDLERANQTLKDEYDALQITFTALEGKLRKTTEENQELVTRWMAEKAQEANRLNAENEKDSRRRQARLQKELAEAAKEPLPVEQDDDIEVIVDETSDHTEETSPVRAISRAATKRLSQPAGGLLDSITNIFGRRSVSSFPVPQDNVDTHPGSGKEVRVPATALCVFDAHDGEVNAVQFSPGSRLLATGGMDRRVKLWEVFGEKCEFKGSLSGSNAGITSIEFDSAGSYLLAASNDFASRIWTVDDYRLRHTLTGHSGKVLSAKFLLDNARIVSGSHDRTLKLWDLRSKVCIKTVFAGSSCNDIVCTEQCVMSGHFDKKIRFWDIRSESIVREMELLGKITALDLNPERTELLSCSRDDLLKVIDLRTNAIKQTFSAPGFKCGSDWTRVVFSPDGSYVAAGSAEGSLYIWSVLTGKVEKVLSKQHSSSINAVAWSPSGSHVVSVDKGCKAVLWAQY
UniProt Q8C0J2: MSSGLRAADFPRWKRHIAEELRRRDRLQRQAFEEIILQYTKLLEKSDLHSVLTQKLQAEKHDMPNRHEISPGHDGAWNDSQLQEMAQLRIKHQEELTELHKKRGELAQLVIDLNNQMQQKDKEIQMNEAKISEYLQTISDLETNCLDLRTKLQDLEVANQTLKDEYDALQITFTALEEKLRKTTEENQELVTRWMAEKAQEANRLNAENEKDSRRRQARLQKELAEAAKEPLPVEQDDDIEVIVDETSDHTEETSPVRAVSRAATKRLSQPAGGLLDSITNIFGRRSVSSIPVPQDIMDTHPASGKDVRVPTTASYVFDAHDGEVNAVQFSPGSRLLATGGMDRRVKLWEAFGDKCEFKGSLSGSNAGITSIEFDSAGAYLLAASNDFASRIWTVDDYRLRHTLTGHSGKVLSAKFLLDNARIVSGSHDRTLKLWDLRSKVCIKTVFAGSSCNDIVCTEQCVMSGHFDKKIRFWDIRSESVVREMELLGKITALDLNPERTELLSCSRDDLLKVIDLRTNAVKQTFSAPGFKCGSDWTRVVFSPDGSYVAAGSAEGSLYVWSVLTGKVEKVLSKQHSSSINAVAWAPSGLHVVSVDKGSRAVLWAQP

[2] = target: T1, Flag-tagged Gigaxonin (human, full-length) (human); test: co-IP; COS-7 cells transiently transfected and treated with MG132; anti-Flag or anti-Cherry antibodies on Dynabeads Protein G incubated with 500 µg of lysate protein for 2 h at room temperature in PBS tween 0.02%; immunoblot with Cherry/Flag antibodies; normal mouse IgG as negative control
[3] = target: Cherry-ATG16L1 (human) (human) (UniProt Q676U5); test: as above
[4] = target: ATG16L1 fused to the N-terminal region of YFP (BiFC construct) (human) (UniProt Q676U5); test: split reporter; BiFC in live transfected COS-7 cells ± MG132; ATG16L1 fused to YFPN (1-154aa) and Gigaxonin fused to YFPC (155-239aa)
[5] = target: Flag-ATG16L1 full-length (mouse) (mouse) (UniProt Q8C0J2); test: co-IP; COS-7 cells transiently transfected and treated with MG132; anti-Flag or anti-Cherry antibodies on Dynabeads Protein G incubated with 500 µg of lysate protein for 2 h at room temperature in PBS tween 0.02%; immunoblot with Cherry/Flag antibodies; normal mouse IgG as negative control

Cherry-ATG16L1 (human) (from UniProt Q676U5 1-607)
binding [1]: binds | binding [2]: binds

B1: Flag-tagged Gigaxonin (human, full-length) (protein, UniProt Q9H2C0 1-597)
chain: T1 sequence
binding [3]: binds

B2: Gigaxonin fused to the C-terminal region of YFP (BiFC construct) (protein, UniProt Q9H2C0 1-597)
chain: T1 sequence
binding [4]: binds

B3: Cherry-Gigaxonin (human, full-length) (protein, UniProt Q9H2C0 1-597)
chain: T1 sequence
binding [5]: binds

Reference: article PMC6377711
